No constants are given. Whether binding was seen depends on the method and setting. In cells and extracts the contact can be indirect. Some entries that bind do so weakly or less than the wild type.

Protein sequences, listed by entry. Tags and fused reporters are not part of them.
UniProt Q92905: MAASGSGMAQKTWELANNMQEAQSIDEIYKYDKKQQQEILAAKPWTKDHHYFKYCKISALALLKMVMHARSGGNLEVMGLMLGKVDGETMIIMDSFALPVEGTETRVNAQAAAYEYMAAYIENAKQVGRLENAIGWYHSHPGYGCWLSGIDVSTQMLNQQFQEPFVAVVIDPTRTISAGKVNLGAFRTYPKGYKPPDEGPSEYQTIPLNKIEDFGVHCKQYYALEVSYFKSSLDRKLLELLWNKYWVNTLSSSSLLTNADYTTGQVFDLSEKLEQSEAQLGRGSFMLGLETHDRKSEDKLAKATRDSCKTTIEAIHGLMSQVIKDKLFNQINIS
UniProt Q13098: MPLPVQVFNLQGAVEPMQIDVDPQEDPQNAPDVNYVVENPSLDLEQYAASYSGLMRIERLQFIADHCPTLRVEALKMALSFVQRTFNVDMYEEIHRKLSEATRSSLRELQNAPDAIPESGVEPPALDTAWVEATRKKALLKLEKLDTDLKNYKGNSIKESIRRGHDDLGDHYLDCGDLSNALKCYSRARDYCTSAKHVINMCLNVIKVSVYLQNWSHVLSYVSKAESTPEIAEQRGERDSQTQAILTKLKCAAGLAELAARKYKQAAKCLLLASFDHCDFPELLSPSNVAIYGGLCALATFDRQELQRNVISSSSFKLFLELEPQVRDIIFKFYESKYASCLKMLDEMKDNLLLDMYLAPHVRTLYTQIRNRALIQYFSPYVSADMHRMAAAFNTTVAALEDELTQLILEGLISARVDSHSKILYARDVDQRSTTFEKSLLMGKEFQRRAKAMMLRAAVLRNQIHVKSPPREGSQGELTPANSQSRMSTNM
UniProt Q13547: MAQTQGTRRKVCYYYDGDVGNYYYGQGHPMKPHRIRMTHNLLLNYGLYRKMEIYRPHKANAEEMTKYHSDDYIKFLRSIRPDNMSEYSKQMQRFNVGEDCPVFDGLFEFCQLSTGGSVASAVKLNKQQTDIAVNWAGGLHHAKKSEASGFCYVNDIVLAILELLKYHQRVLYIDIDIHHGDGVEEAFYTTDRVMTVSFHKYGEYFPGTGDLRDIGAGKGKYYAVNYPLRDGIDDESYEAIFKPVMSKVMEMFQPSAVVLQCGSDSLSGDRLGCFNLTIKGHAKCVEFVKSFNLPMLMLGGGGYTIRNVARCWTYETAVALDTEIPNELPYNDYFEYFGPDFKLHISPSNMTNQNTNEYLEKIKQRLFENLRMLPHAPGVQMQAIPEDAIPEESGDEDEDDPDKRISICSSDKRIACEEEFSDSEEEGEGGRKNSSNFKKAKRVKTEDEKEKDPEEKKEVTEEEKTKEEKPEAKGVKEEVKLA
UniProt O15379: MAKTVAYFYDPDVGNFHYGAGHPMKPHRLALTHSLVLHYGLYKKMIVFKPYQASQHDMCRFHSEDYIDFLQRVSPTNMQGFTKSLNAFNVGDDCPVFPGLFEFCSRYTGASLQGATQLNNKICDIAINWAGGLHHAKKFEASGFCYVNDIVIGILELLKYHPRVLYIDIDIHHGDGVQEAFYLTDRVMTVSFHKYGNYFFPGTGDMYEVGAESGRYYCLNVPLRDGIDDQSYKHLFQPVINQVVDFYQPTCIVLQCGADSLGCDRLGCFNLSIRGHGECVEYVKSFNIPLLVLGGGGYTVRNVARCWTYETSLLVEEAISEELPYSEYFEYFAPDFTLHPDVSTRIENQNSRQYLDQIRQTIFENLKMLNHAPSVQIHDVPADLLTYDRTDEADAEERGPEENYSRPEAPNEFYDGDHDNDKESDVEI
UniProt O75376: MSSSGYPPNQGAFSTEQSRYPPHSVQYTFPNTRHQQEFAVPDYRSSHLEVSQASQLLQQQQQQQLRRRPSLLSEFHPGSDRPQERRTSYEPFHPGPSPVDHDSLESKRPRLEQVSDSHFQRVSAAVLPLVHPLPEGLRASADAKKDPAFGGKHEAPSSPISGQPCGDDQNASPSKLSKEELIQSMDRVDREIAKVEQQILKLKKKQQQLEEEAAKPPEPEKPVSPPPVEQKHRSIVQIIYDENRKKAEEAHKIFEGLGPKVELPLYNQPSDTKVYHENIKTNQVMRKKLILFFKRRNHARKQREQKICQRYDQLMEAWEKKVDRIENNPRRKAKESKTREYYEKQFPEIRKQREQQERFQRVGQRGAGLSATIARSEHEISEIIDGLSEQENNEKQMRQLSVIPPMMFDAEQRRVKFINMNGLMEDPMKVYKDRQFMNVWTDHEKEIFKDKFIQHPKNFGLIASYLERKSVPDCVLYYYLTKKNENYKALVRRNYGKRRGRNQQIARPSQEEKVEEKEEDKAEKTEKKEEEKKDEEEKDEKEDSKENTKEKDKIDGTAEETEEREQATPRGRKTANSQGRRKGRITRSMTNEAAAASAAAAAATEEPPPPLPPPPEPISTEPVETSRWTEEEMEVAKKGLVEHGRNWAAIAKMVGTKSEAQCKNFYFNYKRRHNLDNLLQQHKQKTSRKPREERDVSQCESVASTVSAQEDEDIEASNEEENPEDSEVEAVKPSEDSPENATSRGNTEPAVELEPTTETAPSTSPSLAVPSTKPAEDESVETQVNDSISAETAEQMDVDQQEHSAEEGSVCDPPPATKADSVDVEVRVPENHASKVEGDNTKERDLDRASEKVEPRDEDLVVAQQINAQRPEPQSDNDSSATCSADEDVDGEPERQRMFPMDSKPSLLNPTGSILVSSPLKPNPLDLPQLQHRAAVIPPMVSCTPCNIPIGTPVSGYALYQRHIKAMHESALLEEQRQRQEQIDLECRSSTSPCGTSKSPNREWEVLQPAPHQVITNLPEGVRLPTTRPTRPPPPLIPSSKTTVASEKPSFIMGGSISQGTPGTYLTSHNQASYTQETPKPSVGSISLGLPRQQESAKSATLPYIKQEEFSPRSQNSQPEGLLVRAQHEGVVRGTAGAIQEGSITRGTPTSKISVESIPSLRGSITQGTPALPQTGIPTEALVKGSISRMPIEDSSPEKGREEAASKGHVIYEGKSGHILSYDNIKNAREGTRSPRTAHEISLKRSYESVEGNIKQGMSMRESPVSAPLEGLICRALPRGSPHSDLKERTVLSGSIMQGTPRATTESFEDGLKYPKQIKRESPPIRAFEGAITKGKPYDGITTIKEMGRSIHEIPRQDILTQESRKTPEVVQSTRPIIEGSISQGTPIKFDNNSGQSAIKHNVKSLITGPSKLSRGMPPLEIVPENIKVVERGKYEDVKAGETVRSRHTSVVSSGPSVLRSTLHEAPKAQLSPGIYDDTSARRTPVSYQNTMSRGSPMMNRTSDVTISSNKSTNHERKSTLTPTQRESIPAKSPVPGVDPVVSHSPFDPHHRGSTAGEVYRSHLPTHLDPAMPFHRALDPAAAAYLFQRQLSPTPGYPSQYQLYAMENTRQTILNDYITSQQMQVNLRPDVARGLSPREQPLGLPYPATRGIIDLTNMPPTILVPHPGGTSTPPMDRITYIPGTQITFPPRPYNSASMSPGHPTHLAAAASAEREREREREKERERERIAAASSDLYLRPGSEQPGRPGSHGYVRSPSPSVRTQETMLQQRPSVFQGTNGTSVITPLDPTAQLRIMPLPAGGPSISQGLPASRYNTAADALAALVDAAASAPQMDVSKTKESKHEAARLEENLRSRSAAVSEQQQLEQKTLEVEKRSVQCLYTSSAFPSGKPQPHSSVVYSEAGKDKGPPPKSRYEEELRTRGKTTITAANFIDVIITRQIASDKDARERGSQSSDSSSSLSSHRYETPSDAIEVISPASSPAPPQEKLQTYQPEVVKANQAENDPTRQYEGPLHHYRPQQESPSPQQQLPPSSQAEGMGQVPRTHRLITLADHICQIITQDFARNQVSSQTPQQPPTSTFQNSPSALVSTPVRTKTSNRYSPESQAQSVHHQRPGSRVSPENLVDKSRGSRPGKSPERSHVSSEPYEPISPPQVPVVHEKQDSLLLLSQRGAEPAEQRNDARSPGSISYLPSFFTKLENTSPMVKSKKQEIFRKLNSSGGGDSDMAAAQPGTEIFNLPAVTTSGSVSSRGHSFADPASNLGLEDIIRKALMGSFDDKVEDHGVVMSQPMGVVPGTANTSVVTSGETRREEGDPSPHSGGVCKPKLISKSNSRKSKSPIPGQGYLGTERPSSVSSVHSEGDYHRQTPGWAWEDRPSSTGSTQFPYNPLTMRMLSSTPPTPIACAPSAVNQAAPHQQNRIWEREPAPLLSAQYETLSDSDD
UniProt P03372: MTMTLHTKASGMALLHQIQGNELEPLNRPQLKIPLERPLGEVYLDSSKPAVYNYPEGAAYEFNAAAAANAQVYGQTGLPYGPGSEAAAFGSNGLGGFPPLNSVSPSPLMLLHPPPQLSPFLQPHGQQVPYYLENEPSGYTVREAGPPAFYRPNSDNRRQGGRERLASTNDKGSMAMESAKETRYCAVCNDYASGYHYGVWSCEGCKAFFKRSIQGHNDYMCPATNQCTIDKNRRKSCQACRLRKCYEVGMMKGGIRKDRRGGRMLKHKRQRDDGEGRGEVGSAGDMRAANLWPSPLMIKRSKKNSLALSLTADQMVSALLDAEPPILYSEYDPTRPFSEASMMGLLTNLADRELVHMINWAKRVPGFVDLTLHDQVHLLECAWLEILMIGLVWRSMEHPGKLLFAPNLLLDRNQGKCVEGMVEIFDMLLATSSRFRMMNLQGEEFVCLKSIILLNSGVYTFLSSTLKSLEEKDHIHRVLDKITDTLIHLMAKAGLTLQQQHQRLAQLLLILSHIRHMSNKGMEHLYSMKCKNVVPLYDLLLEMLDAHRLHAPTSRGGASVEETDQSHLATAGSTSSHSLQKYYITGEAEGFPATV
UniProt Q92831: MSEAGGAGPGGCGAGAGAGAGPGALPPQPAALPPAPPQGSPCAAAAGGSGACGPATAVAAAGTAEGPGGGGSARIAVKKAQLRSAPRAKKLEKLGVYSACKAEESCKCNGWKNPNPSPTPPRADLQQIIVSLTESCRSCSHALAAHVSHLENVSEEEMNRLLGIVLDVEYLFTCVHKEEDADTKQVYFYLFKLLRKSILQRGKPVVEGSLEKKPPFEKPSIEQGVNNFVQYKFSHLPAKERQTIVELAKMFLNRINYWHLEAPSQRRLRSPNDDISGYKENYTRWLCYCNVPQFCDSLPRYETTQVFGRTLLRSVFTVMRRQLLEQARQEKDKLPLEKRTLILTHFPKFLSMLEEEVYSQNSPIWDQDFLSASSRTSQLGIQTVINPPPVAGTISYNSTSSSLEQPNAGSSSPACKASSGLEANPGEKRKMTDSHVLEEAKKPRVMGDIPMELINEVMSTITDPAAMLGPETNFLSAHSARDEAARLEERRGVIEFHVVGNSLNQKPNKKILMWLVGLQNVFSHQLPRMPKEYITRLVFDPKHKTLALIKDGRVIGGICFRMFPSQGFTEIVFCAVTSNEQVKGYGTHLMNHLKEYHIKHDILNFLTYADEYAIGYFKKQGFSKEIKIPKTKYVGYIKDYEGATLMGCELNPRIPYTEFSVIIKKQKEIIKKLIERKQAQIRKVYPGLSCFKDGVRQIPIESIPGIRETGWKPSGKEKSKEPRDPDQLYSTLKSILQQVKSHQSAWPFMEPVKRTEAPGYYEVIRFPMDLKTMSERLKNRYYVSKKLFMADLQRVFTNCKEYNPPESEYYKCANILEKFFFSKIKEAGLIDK

The first test has as its target COPS5 (human (endogenous in MCF7)) (UniProt Q92905). Nature of the test: co-IP; immunoprecipitation with anti-COPS5 antibodies from parental MCF7 cell lysate, western blot of co-precipitated endogenous proteins; NETN buffer (25 mM Tris-HCl pH 8.0, 150 mM NaCl, 1 mM EDTA, 1% Nonidet P-40, 10% glycerol).
Take GPS1/CSN1 (from UniProt Q13098 1-491): the binding entry was “binds”.

For HDAC1 (from UniProt Q13547 1-482), the binding entry is listed as “no binding”. Take HDAC3 (from UniProt O15379 1-428): the binding result is listed as “binds”. Turning to NCoR (from UniProt O75376 1-2440), the binding result was “binds”. As to “Oestrogen receptor α (from UniProt P03372 1-595)”, the binding result is given as “no binding”. PCAF (from UniProt Q92831 1-832): the binding entry was “no binding”.

Another test deals with NCoR (human (endogenous in MCF7)) (UniProt O75376). Nature of the test: co-IP; reciprocal: immunoprecipitation of endogenous NCoR, western blot for COPS5; NETN buffer (25 mM Tris-HCl pH 8.0, 150 mM NaCl, 1 mM EDTA, 1% Nonidet P-40, 10% glycerol).
As to COPS5 (from UniProt Q92905 1-334), the binding entry is on record as “binds”.

(Values after paper PMC4932188.)
